Most values lie at the floor of the assay. Slopes are relative: functional sequences can read slightly below zero.
Each substance was assayed on Saccharomyces cerevisiae PS128 hsf1 delta, HSF1(1-493) fusion (assay: growth estimate (transactivation domain function in HSF1 fusion, heat-shock survival) (a.u. (slope of normalised read count over time)); higher = stronger growth at 37°C, i.e. more transactivation activity). Conditions: library: random library.

**Q.** EGFTLGTSRLQ was tested. Which growth estimate did it give?
**A.** < -0.25

**Q.** How did the growth estimate turn out when HALCLEGIRNSIVV was run?
**A.** -0.246

**Q.** RGPWEEGLRSHRQNVGKAKC was tested. Which growth estimate did it give?
**A.** < -0.25

**Q.** With TPYQAGFGYLVLNVLHMYAA as the substance, how does the growth estimate read?
**A.** < -0.25

**Q.** MPTLLPTGMNLKSGGSAGIR was tested. Which growth estimate did it give?
**A.** < -0.25

**Q.** For FKCYR, which growth estimate is on record?
**A.** < -0.25

**Q.** How did the growth estimate turn out when TKQQQQMREPDSISSSN was run?
**A.** < -0.25

**Q.** For TGEILELIEYE, which growth estimate is on record?
**A.** < -0.25

**Q.** For GPPGWFRIPPSLGSQSRRIF, which growth estimate is on record?
**A.** < -0.25

**Q.** Which growth estimate does the source give for EHVRQLPSGLKPGRRIFLSP here?
**A.** < -0.25

**Q.** For SPEWSEHVMRILDRVACGP, which growth estimate is on record?
**A.** < -0.25

**Q.** With RDQFRN as the substance, how does the growth estimate read?
**A.** < -0.25

**Q.** Which growth estimate does the source give for WLKE here?
**A.** < -0.25

**Q.** For CNRS, which growth estimate is on record?
**A.** < -0.25

**Q.** With AHRERLTEVRA as the substance, how does the growth estimate read?
**A.** < -0.25

**Q.** How did the growth estimate turn out when THRTHKGGKPTTFCCDGSAL was run?
**A.** < -0.25

**Q.** How did the growth estimate turn out when LTVVGFPGNLLGM was run?
**A.** < -0.25

**Q.** Which growth estimate does the source give for PSYG here?
**A.** < -0.25

**Q.** For QLTGPRQYSVDLRAAVTWTS, which growth estimate is on record?
**A.** < -0.25

**Q.** Which growth estimate does the source give for HTTIRYTIRLGSGMLVPSRC here?
**A.** < -0.25

**Q.** RHKPISR was tested. Which growth estimate did it give?
**A.** < -0.25

**Q.** How did the growth estimate turn out when SPEVEP was run?
**A.** < -0.25

**Q.** Which growth estimate does the source give for LQQSSIS here?
**A.** < -0.25

**Q.** LDVGLIDS was tested. Which growth estimate did it give?
**A.** < -0.25

**Q.** GMRDLRFESRGVHYVTTWGL was tested. Which growth estimate did it give?
**A.** < -0.25

**Q.** SRQVTSIAQQ was tested. Which growth estimate did it give?
**A.** -0.243

**Q.** How did the growth estimate turn out when ASIAPTFVGCM was run?
**A.** < -0.25

**Q.** Which growth estimate does the source give for MFRTVGCTQSS here?
**A.** < -0.25

**Q.** With HMHGPLCT as the substance, how does the growth estimate read?
**A.** < -0.25

**Q.** With PPRFSGLWLGP as the substance, how does the growth estimate read?
**A.** < -0.25

**Q.** How did the growth estimate turn out when FLCIGLWRPV was run?
**A.** < -0.25

**Q.** For ARRNSDTYMPNQVDSSLFSG, which growth estimate is on record?
**A.** < -0.25

**Q.** For LKGPPDSDLLPAQVGLYPRV, which growth estimate is on record?
**A.** < -0.25

**Q.** How did the growth estimate turn out when YLAELDQVRHPAQMVA was run?
**A.** < -0.25

**Q.** How did the growth estimate turn out when HDGCSFNHEIVMVEH was run?
**A.** < -0.25

**Q.** Which growth estimate does the source give for AFA here?
**A.** < -0.25

**Q.** With NLYADRNILSRNGF as the substance, how does the growth estimate read?
**A.** < -0.25

**Q.** Which growth estimate does the source give for SVQGLEGAMTLDTAAS here?
**A.** 0.182

**Q.** With REGIMIVPGTARPLQSRDHR as the substance, how does the growth estimate read?
**A.** < -0.25

**Q.** TGAGTYGMFTSSTFVRASPH was tested. Which growth estimate did it give?
**A.** < -0.25

**Q.** FKNLGFHRQ was tested. Which growth estimate did it give?
**A.** < -0.25

**Q.** For LSKRVERGLKTVRRIGIFGG, which growth estimate is on record?
**A.** < -0.25

**Q.** Which growth estimate does the source give for ALSGMSQWT here?
**A.** < -0.25

**Q.** With PELGLCGQVSTCPF as the substance, how does the growth estimate read?
**A.** < -0.25

**Q.** For YSASGRMM, which growth estimate is on record?
**A.** < -0.25

**Q.** Which growth estimate does the source give for PFTTTKAVPHACHLGHQTPY here?
**A.** -0.243

**Q.** NRV was tested. Which growth estimate did it give?
**A.** < -0.25

**Q.** For LCGSGYGDSARVRATRCRCA, which growth estimate is on record?
**A.** < -0.25

**Q.** With GWSCT as the substance, how does the growth estimate read?
**A.** < -0.25

**Q.** Which growth estimate does the source give for SSSFSRPRR here?
**A.** < -0.25

**Q.** Which growth estimate does the source give for VETRVRVLQRRLVRTHYPQR here?
**A.** < -0.25

**Q.** How did the growth estimate turn out when TVVCISLVRLA was run?
**A.** < -0.25

**Q.** TRDQ was tested. Which growth estimate did it give?
**A.** < -0.25

**Q.** EDLLVG was tested. Which growth estimate did it give?
**A.** -0.243

**Q.** For WPDATRYFLCIANSDSIRLK, which growth estimate is on record?
**A.** < -0.25

**Q.** SICSSSDLRRPIR was tested. Which growth estimate did it give?
**A.** < -0.25

**Q.** How did the growth estimate turn out when AIFGRLRTWVQPPETRLSVR was run?
**A.** < -0.25

**Q.** Which growth estimate does the source give for FGNVGQTQGVGIVTILHWTR here?
**A.** < -0.25

**Q.** Which growth estimate does the source give for HVVPLIALESCGSSNPSSKY here?
**A.** < -0.25

**Q.** CVDACGATGIWVRAVG was tested. Which growth estimate did it give?
**A.** < -0.25

**Q.** How did the growth estimate turn out when KRGLRPARDLRGGA was run?
**A.** < -0.25

**Q.** Which growth estimate does the source give for CIPMHRDSNRSTKHISNSQP here?
**A.** < -0.25

**Q.** How did the growth estimate turn out when SCAIITTWLWLSSSRDAVGR was run?
**A.** < -0.251

**Q.** How did the growth estimate turn out when VNLHIQVTRVVKRQVFLRGP was run?
**A.** < -0.25

**Q.** How did the growth estimate turn out when SSGRTQEVPRIPVKSRRERN was run?
**A.** < -0.25

**Q.** Which growth estimate does the source give for GKG here?
**A.** < -0.25

**Q.** Which growth estimate does the source give for GEIGP here?
**A.** < -0.25

**Q.** With AADG as the substance, how does the growth estimate read?
**A.** < -0.25

**Q.** PNVASA was tested. Which growth estimate did it give?
**A.** < -0.25

**Q.** RVLPLFIEVSERWIIASAIQ was tested. Which growth estimate did it give?
**A.** < -0.25

**Q.** Which growth estimate does the source give for DLTLALLS here?
**A.** < -0.25

**Q.** With TSSLELIG as the substance, how does the growth estimate read?
**A.** < -0.25

**Q.** With VPSWWHRRVAIRA as the substance, how does the growth estimate read?
**A.** < -0.25

**Q.** CIIQWGPLRLRYLI was tested. Which growth estimate did it give?
**A.** < -0.25

**Q.** With LQTRFLADPGQPRVVLFCGC as the substance, how does the growth estimate read?
**A.** < -0.25

**Q.** Which growth estimate does the source give for SIRAGLGPKGSSRRTQCRYI here?
**A.** < -0.25

**Q.** With CTGLTRVVFVYVRRPETSA as the substance, how does the growth estimate read?
**A.** < -0.25

**Q.** ARF was tested. Which growth estimate did it give?
**A.** < -0.25

**Q.** With GISFS as the substance, how does the growth estimate read?
**A.** < -0.25

**Q.** How did the growth estimate turn out when NLWRTC was run?
**A.** < -0.25

**Q.** Which growth estimate does the source give for TVEPRRR here?
**A.** < -0.25

**Q.** How did the growth estimate turn out when FVQHVELSVSLLRLVGPHGT was run?
**A.** < -0.25

**Q.** Which growth estimate does the source give for CLSYLPNRKIGRTGRVDSVP here?
**A.** < -0.25

**Q.** How did the growth estimate turn out when LRACVDSFTIKEVYNAAERY was run?
**A.** < -0.25

**Q.** Which growth estimate does the source give for RDKDVKAVPDARSGLAC here?
**A.** < -0.25

**Q.** For PVSSVETHQVVVWLDG, which growth estimate is on record?
**A.** < -0.25

**Q.** Which growth estimate does the source give for QLCLRDDRRI here?
**A.** < -0.25

**Q.** QHRAHSAQV was tested. Which growth estimate did it give?
**A.** < -0.25

**Q.** For GDFIPEVMDRVPFPHLCYSP, which growth estimate is on record?
**A.** < -0.25

**Q.** Which growth estimate does the source give for LMVYMRL here?
**A.** < -0.25

**Q.** SLRHAHALVGEGCG was tested. Which growth estimate did it give?
**A.** < -0.25

**Q.** RWLGSSVSDFGFTKRVTFSP was tested. Which growth estimate did it give?
**A.** < -0.25

**Q.** CYIVGYGVKGGDLVCHALKS was tested. Which growth estimate did it give?
**A.** < -0.25

**Q.** Which growth estimate does the source give for LYSRIHRVAHIMIGLSQLVS here?
**A.** < -0.25

**Q.** Which growth estimate does the source give for RQRTIGVGDLNISDSPTGDA here?
**A.** < -0.25

**Q.** How did the growth estimate turn out when SADPQPPGHR was run?
**A.** < -0.25

**Q.** How did the growth estimate turn out when GGGR was run?
**A.** < -0.25

**Q.** How did the growth estimate turn out when LRLGSIRRKGSLRP was run?
**A.** < -0.25

**Q.** How did the growth estimate turn out when HLRCGPLSAILSMRRNAACT was run?
**A.** < -0.25

**Q.** Which growth estimate does the source give for QARTTSWLHEVFRGASLEF here?
**A.** < -0.25

— the supplement of paper PMC5949888
